Data reported in US10668068B2, “Treating cancer with drug combinations” (The Research Foundation for The State University of New York, priority 2015, dated 2020).
At least one structure is not confirmed: it was looked up by name or label, or the drawing left a doubt.

Protein sequences, listed by entry. Tags and fused reporters are not part of them. Residues count along the entry.
UniProt Q06187, 1-693 isoform Q06187-2: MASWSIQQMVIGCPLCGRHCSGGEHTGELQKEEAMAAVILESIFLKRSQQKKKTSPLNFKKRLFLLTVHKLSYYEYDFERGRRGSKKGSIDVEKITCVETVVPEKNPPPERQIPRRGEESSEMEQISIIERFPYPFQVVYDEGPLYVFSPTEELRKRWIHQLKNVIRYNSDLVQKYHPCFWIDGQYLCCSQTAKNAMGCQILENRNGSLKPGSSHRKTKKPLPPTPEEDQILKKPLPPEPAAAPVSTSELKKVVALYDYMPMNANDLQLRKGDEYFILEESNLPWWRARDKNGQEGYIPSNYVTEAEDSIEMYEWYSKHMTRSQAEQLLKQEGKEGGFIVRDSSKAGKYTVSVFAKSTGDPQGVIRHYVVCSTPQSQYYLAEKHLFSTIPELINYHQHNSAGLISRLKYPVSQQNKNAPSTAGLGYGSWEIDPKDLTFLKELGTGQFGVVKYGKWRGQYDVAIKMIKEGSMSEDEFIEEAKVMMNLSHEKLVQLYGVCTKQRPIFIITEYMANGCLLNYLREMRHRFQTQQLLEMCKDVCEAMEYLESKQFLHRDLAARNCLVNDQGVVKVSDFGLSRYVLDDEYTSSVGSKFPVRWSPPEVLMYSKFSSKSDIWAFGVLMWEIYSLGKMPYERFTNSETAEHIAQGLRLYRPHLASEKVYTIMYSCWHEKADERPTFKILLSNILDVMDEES

Assays:
BTK-C = target: T1, BTK-C (Homo sapiens, UniProt Q06187); experiment: BTK-C activation in SKBR3-BTK-C cells (immunoblot); assay type: cell-based
T1 construct: Flag; expressed in transfected cells; host or cells: SKBR3-BTK-C (SKBR3 human breast cancer cells expressing BTK-C)

MCF7 cells = experiment: Cell growth assay (live cell count); assay type: cell-based, human; conditions: 1 μM and 10 μM, 3 days
SKBR3 cells [1] = experiment: Cell growth assay (live cell count); assay type: cell-based, human; conditions: 1 μM and 10 μM, 3 days
From the text: (§1) For live cell counts, cell growth on 96-well plates were fixed 4% formaldehyde and counterstained with Hoechst 33342 for nuclei.

MDA-MB-231 cells = experiment: Cell growth assay (live cell count); assay type: cell-based, human; conditions: 1 μM and 10 μM, 3 days
MCF-10A cells = experiment: Cell growth assay (live cell count); assay type: cell-based, human; conditions: 1 μM and 10 μM, 3 days
BT474 cells [2] = experiment: Cell growth assay (live cell count), monolayer culture; assay type: cell-based, human; conditions: 10 nanomolar, 3 days
From the text: as §1

BT474 cells [3] = experiment: 3D Matrigel cell culture; assay type: cell-based, human; conditions: 0.1 μM or 0.5 μm, 9 days
[4] = system: EGFR, HER2, Her3 and ErbB4; experiment: Western blotting of EGFR family activation and downstream Akt/Erk in BT474 cells; assay type: cell-based, human; conditions: 2 hours
Protocol: (§2) Immunoblotting was performed essentially as described previously. Equal amounts of proteins were used. Antibodies used were anti-EGFR (1:1000,), anti-HER2 (1:1000,), anti-ERBB3, ERBB4 antibody, anti-BTK, anti-AKT, ERIK, anti-PLCγ1, PLCγ2 and anti-PARP (1:1000, cell signaling), anti-Flag antibody (1:1000, Sigma), anti-rabbit IgG-HRP and mouse IgG-HRP (1:5000, Jackson ImmunoResearch).

[5] = system: BT474 human breast cancer cells; experiment: Cell cycle analysis (propidium iodide, flow cytometry); assay type: cell-based; conditions: 24 hours
BT474 cells [6] = experiment: Nine days NRG1 co-treatment, crystal violet staining; assay type: cell-based, human; conditions: 9 days, drug 1 uM, NRG1 50 ng/ml
Protocol: (§3) Cells were cultured in 6-well plates for indicated days. Cells were fixed with 3.7% paraformaldehyde for 10 min and washed with PBS. After wash, cells were stained with 0.05% CV for 30 min Whole plate was washed with tape water. Dry plate was added with 0.5 ml methanol to solubilize the dye. Taking an aliquot to 96-well plate and reading CV stain with OD 540. Tumorospheres were counted under low magnification.

SKBR3 cells [7] = experiment: as above; assay type: cell-based, human; conditions: 9 days, drug 1 uM, NRG1 50 ng/ml
Protocol: as §3

AKT = experiment: Immunoblots of NRG1 effect on HER2, AKT and ERK activation in BT474 and SkBR3 cells; assay type: cell-based, human; conditions: 2 h
Protocol: as §2

xenografts of SKBR3 = system: xenografts of SKBR3
Protocol: NOD/SCID mice were purchased from Jackson Lab (The Jackson Laboratory, Bar Harbor, Me., USA). All mouse procedures were approved by the Animal Care and Use Committees of SUNY Albany and performed in accordance with institutional policies.
For xenograft tumor studies, 1×10^6 SKBR3 cells were suspended in 50 μl Matrigel (BD Biosciences) diluted 1:2 with DMEM and injected into mammary fat pad. Treatment began when tumors were palpable. […] The tumor volume in mm^3 is calculated by the formula: volume=(width)^2×length/2 every 7 days.

[8] = system: HER2-positive breast cancer cells; experiment: Apoptosis assay (Alexa Fluor 488 annexin V); conditions: 0.05 or 0.1 μM, 24 hours
[9] = system: HER2-positive breast cancer cells; experiment: Live cell count with NRG1 or EGF (growth factor driven rescue)

O=c1cc(N2CCOCC2)oc2c(-c3ccccc3)cccc12 [LY294002]
phosphorylation (activation) of BTK-C (BTK-C; 10 μM, 24 hours): does not suppress BTK-C activation
AKT activation (BTK-C; 50 μM): completely blocks AKT activation
BTK-C activation (BTK-C; 50 μM): but not BTK-C activation

CN1CCN(CCOc2cc(OC3CCOCC3)c3c(Nc4c(Cl)ccc5c4OCO5)ncnc3c2)CC1 [Sarcatinib]
phosphorylation (activation) of BTK-C (BTK-C; 10 μM, 24 hours): completely blocked
phosphorylation of AKT (BTK-C; 10 μM, 24 hours): also decreases

C=CC(=O)N1CCC[C@@H](n2nc(-c3ccc(Oc4ccccc4)cc3)c3c(N)ncnc32)C1 [ibrutinib]
cell number (MCF7 cells): decreased cell number
cell number (SKBR3 cells [1]): decreased cell number
cell number (MDA-MB-231 cells): decreased cell number
cell number (MCF-10A cells): but not in MCF-10A cells
cell growth inhibition (BT474 cells [2]): inhibits HER2-positive breast cancer cell growth
cell number in 3D matrigel culture (BT474 cells [3]): significantly reduces cell number
Akt and Erk phosphorylation / downstream signaling [4]: blocking downstream signaling that requires Akt or Erk activation
phosphorylation (activation) of EGFR family ([4]; ibrutinib 0.05 or 0.1 μM, AVL-292 0.1 μM): inhibits the phosphorylation of EGFR, HER2, Her3 and ErbB4
G1-S arrest [5]: appreciable G1-S arrest
drug resistance after NRG1 co-treatment (BT474 cells [6]): does not yield ibrutinib resistant cells
drug resistance after NRG1 co-treatment (SKBR3 cells [7]): does not yield ibrutinib resistant cells
re-activation of AKT by NRG1 (AKT; co-treatment with NRG1 50 ng/ml): NRG1 cannot re-activate AKT
activation of HER2, AKT and ERK (AKT; drug alone): blocked
apoptosis in tumor tissues (caspase 3 staining) (xenografts of SKBR3; ibrutinib treated xenografts): focal apoptotic lesions
phosphorylation of Her2, BTK, AKT and ERK in tumor tissues (xenografts of SKBR3; immunofluorescence staining, 12 mg/kg): inhibited
tumor growth (xenografts of SKBR3; p.o. between 6 mg/kg/day and 12 mg/kg/day): inhibits tumor growth
phosphorylated histone H3 staining (proliferation marker) in tumor tissues (xenografts of SKBR3; treated vs untreated control tumor tissues): decreased
number of apoptotic cells [8]: increase in the number of apoptotic cells
rescue from growth inhibition by NRG1 ([9]; 50 ng/ml of NRG1, 3 days): cannot be rescued
rescue from growth inhibition by NRG1 or EGF ([9]; NRG1 or EGF 50 ng/ml): neither NRG1 nor EGF was able to rescue
cell growth suppression ([9]; drug without growth factor, 3 days): potently suppresses cell growth
